The list is a part of this screen's results and no random one: it is rich in T/C values a quarter to a half above the control, in often repeated tests (any T/C) and in doses without a T/C. Other doses and runs of a compound stand elsewhere. T/C gives the treated animals as a percentage of the vehicle group. Some entries give survivors of the animals treated and no T/C: the source holds a T/C of zero for them, seemingly a mark for toxic or unscored doses. Some survivor counts are full or nearly so, which does not show that the dose was tolerated: survival well below the control is almost never listed, so the zero probably covers shortened survival too. Counts of survivors are from the toxicity check (mostly the fifth day) where no day follows; animals may have died later. Schedules are NCI's codes, taken here to give the interval after Q, in days (D) or hours (H), and the number of doses after X. Some entries hold several experiments; the results are listed from low to high. For survival time, this PubChem deposit counts one and a half times the control or more as active, and values a quarter to a half above the control carry no call in these data; other NCI protocols may use other cut-offs. Marks such as (2×) stand for listed records that agree. Some T/C values carry the count of animals alive at the toxicity check (mostly the fifth day); without a count, all were alive then.
System: BDF1 mice, Lymphoma 8 ip, survival T/C
Experiment: NCI In Vivo Anticancer Drug Screen. Data for tumor model Lymphoma 8 (intraperitoneal) in B6D2F1 (BDF1) mice
Conditions: higher T/C = longer survival
Description: The antitumor activity of compounds was measured in mice bearing transplantable tumors. Survival or tumor size were measured and the results are expressed as the measurement made in the treated group (T) divided by the measurement made in the vehicle treated control group (C). The tumor model used in this assay is Lymphoma 8 (intraperitoneal) in B6D2F1 (BDF1) mice

[1] = T/C endpoint: survival time, mean or median, dose: 62.5 mg/kg/injection, schedule: Q01DX010 (ip), vehicle: saline
[2] = T/C endpoint: survival time, mean or median, dose: 6.0 mg/kg/injection, schedule: Q01DX015 (ip), vehicle: carboxymethylcellulose (CMC)
[3] = T/C endpoint: survival time, mean or median, dose: 2.0 mg/kg/injection, schedule: Q01DX015 (ip), vehicle: carboxymethylcellulose (CMC)
[4] = T/C endpoint: survival time, mean or median, dose: 10.0 mg/kg/injection, schedule: Q01DX010 (ip), vehicle: saline
[5] = T/C endpoint: survival time, mean or median, dose: 40.0 mg/kg/injection, schedule: Q01DX010 (ip), vehicle: saline
[6] = T/C endpoint: survival time, mean or median, dose: 200.0 mg/kg/injection, schedule: Q01DX010 (ip), vehicle: saline
[7] = T/C endpoint: survival time, mean or median, dose: 50.0 mg/kg/injection, schedule: Q01DX015 (ip), vehicle: carboxymethylcellulose (CMC)
[8] = T/C endpoint: survival time, mean or median, dose: 6.0 mg/kg/injection, schedule: Q01DX015 (ip), vehicle: saline

SMILES: CCN(CCNc1ccc(C)c2sc3cc(Cl)ccc3c(=O)c12)CC(C)O (stereo unspecified)
- survivor count [1]: 6 of 6

SMILES: N[C@@H](Cc1ccc(N(CCCl)CCCl)cc1)C(=O)O
- survivor count [2]: 10 of 10
- survivor count (T/C endpoint: survival time, mean or median, dose: 8.0 mg/kg/injection, schedule: Q01DX015 (ip), vehicle: carboxymethylcellulose (CMC)): 10 of 10
- survivor count (T/C endpoint: survival time, mean or median, dose: 12.0 mg/kg/injection, schedule: Q01DX015 (ip), vehicle: carboxymethylcellulose (CMC)): 10 of 10

SMILES: CC(=O)OCC1OC(n2cnc3c(=S)nc(N)[nH]c32)C(OC(C)=O)C1OC(C)=O (stereo unspecified)
- survivor count (T/C endpoint: survival time, mean or median, dose: 100.0 mg/kg/injection, schedule: Q01DX015 (ip), vehicle: other): 10 of 10

SMILES: C[n+]1c2ccccc2nc2c(N)cc(N)cc21
- survivor count (T/C endpoint: survival time, mean or median, dose: 27.0 mg/kg/injection, schedule: Q01DX010 (ip), vehicle: saline): 5 of 6

SMILES: C1CN1c1nc(N2CC2)nc(N2CC2)n1
- T/C (T/C endpoint: survival time, mean or median, dose: 0.5 mg/kg/injection, schedule: Q01DX010 (ip), vehicle: saline): 137 % of control
- survivor count (T/C endpoint: survival time, mean or median, dose: 1.0 mg/kg/injection, schedule: Q01DX010 (ip), vehicle: saline): 6 of 6

SMILES: CN(C)[C@@H]1C(=O)C(C(N)=O)=C(O)[C@@]2(O)C(=O)C3=C(O)c4c(O)cccc4C[C@H]3C[C@@H]12
- survivor count (T/C endpoint: survival time, mean or median, dose: 60.0 mg/kg/injection, schedule: Q01DX015 (ip), vehicle: alkali diluted with saline): 8 of 10
- survivor count (T/C endpoint: survival time, mean or median, dose: 120.0 mg/kg/injection, schedule: Q01DX015 (ip), vehicle: alkali diluted with saline): 8 of 10

SMILES: CC(=O)NC1=C(N2CC2)C(=O)C(NC(C)=O)=C(N2CC2)C1=O
- survivor count [3]: 10 of 10
- survivor count (T/C endpoint: survival time, mean or median, dose: 4.0 mg/kg/injection, schedule: Q01DX015 (ip), vehicle: carboxymethylcellulose (CMC)): 10 of 10

SMILES: NC(C/[N+]([O-])=N/O)C(=O)O (stereo unspecified)
- T/C (T/C endpoint: median survival time, dose: 50.0 mg/kg/injection, schedule: Q01DX009 (ip), vehicle: saline): 126 % of control [9 of 10 alive]
- survivor count (T/C endpoint: median survival time, dose: 100.0 mg/kg/injection, schedule: Q01DX009 (ip), vehicle: saline): 9 of 10
- survivor count (T/C endpoint: median survival time, dose: 200.0 mg/kg/injection, schedule: Q01DX009 (ip), vehicle: saline): 9 of 10

SMILES: CN(N=O)C(N)=O
- T/C [4]: 128 % of control
- survivor count [5]: 6 of 6

SMILES: COc1ccccc1CNCCO
- survivor count (T/C endpoint: survival time, mean or median, dose: 400.0 mg/kg/injection, schedule: Q01DX010 (ip), vehicle: saline): 0 of 6

SMILES: N=C(N)SCc1c2ccccc2c(CSC(=N)N)c2ccccc12
- T/C (T/C endpoint: survival time, mean or median, dose: 5.0 mg/kg/injection, schedule: Q01DX010 (ip), vehicle: saline): 128 % of control
- T/C [4]: 126 and 142 % of control

SMILES: CCN(CC)CCNc1ccc(C)c2sc3ccccc3c(=O)c12
- T/C (T/C endpoint: survival time, mean or median, dose: 25.0 mg/kg/injection, schedule: Q01DX010 (ip), vehicle: saline): 127 % of control (2×)
- T/C (T/C endpoint: survival time, mean or median, dose: 50.0 mg/kg/injection, schedule: Q01DX010 (ip), vehicle: saline): 127 % of control
- T/C (T/C endpoint: survival time, mean or median, dose: 100.0 mg/kg/injection, schedule: Q01DX010 (ip), vehicle: saline): 145 % of control
- survivor count [6]: 4 of 6 and 5 of 6

SMILES: O=c1[nH]cc(F)c(=O)[nH]1
- T/C [4]: 132 and 141 % of control
- survivor count [5]: 6 of 6

SMILES: CC(C)CNS(=O)(=O)c1ncnc2nc[nH]c12
- survivor count (T/C endpoint: survival time, mean or median, dose: 150.0 mg/kg/injection, schedule: Q01DX015 (ip), vehicle: carboxymethylcellulose (CMC)): 10 of 10

SMILES: COc1cc(-c2ccc(Nc3ccccc3C(=O)O)c(OC)c2)ccc1N
- survivor count (T/C endpoint: survival time, mean or median, dose: 160.0 mg/kg/injection, schedule: Q01DX010 (ip), vehicle: saline): 4 of 7 and 7 of 7

SMILES: CC(=O)Nc1c(Cl)cc2c(c1Cl)Cc1cc([N+](=O)[O-])ccc1-2
- survivor count (T/C endpoint: survival time, mean or median, dose: 31.3 mg/kg/injection, schedule: Q01DX010 (ip), vehicle: saline): 7 of 7
- survivor count [1]: 7 of 7
- survivor count (T/C endpoint: survival time, mean or median, dose: 125.0 mg/kg/injection, schedule: Q01DX010 (ip), vehicle: saline): 7 of 7
- survivor count (T/C endpoint: survival time, mean or median, dose: 250.0 mg/kg/injection, schedule: Q01DX010 (ip), vehicle: saline): 7 of 7

SMILES: CN(C)C(=S)N=Nc1c(O)[nH]c2ccccc12
- T/C [7]: 131 % of control
- survivor count (T/C endpoint: survival time, mean or median, dose: 200.0 mg/kg/injection, schedule: Q01DX015 (ip), vehicle: carboxymethylcellulose (CMC)): 10 of 10

SMILES: CN(C)c1ccc(Nc2c3ccccc3nc3ccccc23)cc1
- T/C (T/C endpoint: survival time, mean or median, dose: 36.0 mg/kg/injection, schedule: Q01DX010 (ip), vehicle: saline): 128 % of control (2×)
- T/C (T/C endpoint: survival time, mean or median, dose: 54.0 mg/kg/injection, schedule: Q01DX010 (ip), vehicle: saline): 132 and 142 % of control
- T/C (T/C endpoint: survival time, mean or median, dose: 80.0 mg/kg/injection, schedule: Q01DX010 (ip), vehicle: saline): 135 and 139 % of control
- survivor count (T/C endpoint: survival time, mean or median, dose: 120.0 mg/kg/injection, schedule: Q01DX010 (ip), vehicle: saline): 6 of 6

SMILES: CSc1ncnc2nc[nH]c12
- survivor count [6]: 6 of 6

SMILES: Nc1nc(F)nc2c1ncn2C1OC(CO)C(O)C1O (stereo unspecified)
- survivor count (T/C endpoint: survival time, mean or median, dose: 1.5 mg/kg/injection, schedule: Q01DX015 (ip), vehicle: saline): 10 of 10
- survivor count (T/C endpoint: survival time, mean or median, dose: 3.0 mg/kg/injection, schedule: Q01DX015 (ip), vehicle: saline): 10 of 10
- survivor count [8]: 10 of 10

SMILES: O=NN(CCCl)C(=O)NCCCl
- T/C (T/C endpoint: survival time, mean or median, dose: 4.0 mg/kg/injection, schedule: Q01DX015 (ip), vehicle: saline): 141 % of control
- T/C [8]: 149 % of control

SMILES: O=C(O)c1[nH]c(=O)[nH]c(=O)c1F
- T/C [3]: 126 % of control
- T/C (T/C endpoint: survival time, mean or median, dose: 3.0 mg/kg/injection, schedule: Q01DX015 (ip), vehicle: carboxymethylcellulose (CMC)): 132 % of control
- T/C [2]: 136 % of control
- T/C (T/C endpoint: survival time, mean or median, dose: 6.25 mg/kg/injection, schedule: Q01DX015 (ip), vehicle: carboxymethylcellulose (CMC)): 144 % of control
- survivor count (T/C endpoint: survival time, mean or median, dose: 25.0 mg/kg/injection, schedule: Q01DX015 (ip), vehicle: carboxymethylcellulose (CMC)): 10 of 10
- survivor count [7]: 10 of 10

SMILES: Nc1nc(SCc2ccccc2)c2[nH]cnc2n1
- survivor count (T/C endpoint: survival time, mean or median, dose: 64.0 mg/kg/injection, schedule: Q01DX010 (ip), vehicle: saline): 6 of 6

SMILES: CC(=O)Nc1ccc2nc3ccc(NC(C)=O)cc3[n+](-c3ccccc3)c2c1
- survivor count [6]: 6 of 6

SMILES: Nc1nc(=S)c2ncn(C3OC(CO)C(O)C3O)c2[nH]1 (stereo unspecified)
- T/C (T/C endpoint: survival time, mean or median, dose: 2.0 mg/kg/injection, schedule: Q01DX010 (ip), vehicle: saline): 128 % of control
- survivor count (T/C endpoint: survival time, mean or median, dose: 16.0 mg/kg/injection, schedule: Q01DX010 (ip), vehicle: saline): 6 of 6

SMILES: Nc1nc(=S)c2[nH]cnc2[nH]1
- T/C (T/C endpoint: survival time, mean or median, dose: 2.5 mg/kg/injection, schedule: Q01DX010 (ip), vehicle: other): 135 % of control

SMILES: OCC1OC(n2cnc3c(Cl)ncnc32)C(O)C1O (stereo unspecified)
- survivor count [1]: 6 of 6

SMILES: CN(N=O)C(=O)N[C@@H](C=O)[C@@H](O)[C@H](O)[C@H](O)CO
- T/C (T/C endpoint: survival time, mean or median, dose: 25.0 mg/kg/injection, schedule: Q01DX008 (im), vehicle: saline): 131 % of control
- T/C (T/C endpoint: survival time, mean or median, dose: 25.0 mg/kg/injection, schedule: Q01DX008 (ip), vehicle: saline): 125 % of control
- T/C (T/C endpoint: survival time, mean or median, dose: 50.0 mg/kg/injection, schedule: Q01DX008 (im), vehicle: saline): 138 % of control
- T/C (T/C endpoint: survival time, mean or median, dose: 50.0 mg/kg/injection, schedule: Q01DX008 (sc), vehicle: saline): 139 % of control
- survivor count (T/C endpoint: survival time, mean or median, dose: 100.0 mg/kg/injection, schedule: Q01DX008 (ip), vehicle: saline): 10 of 10
- T/C (T/C endpoint: survival time, mean or median, dose: 100.0 mg/kg/injection, schedule: Q01DX008 (sc), vehicle: saline): 147 % of control
- survivor count (T/C endpoint: survival time, mean or median, dose: 200.0 mg/kg/injection, schedule: Q01DX008 (im), vehicle: saline): 10 of 10
- survivor count (T/C endpoint: survival time, mean or median, dose: 200.0 mg/kg/injection, schedule: Q01DX008 (ip), vehicle: saline): 0 of 10 and 4 of 6
- survivor count (T/C endpoint: survival time, mean or median, dose: 200.0 mg/kg/injection, schedule: Q01DX008 (iv), vehicle: saline): 10 of 10
- survivor count (T/C endpoint: survival time, mean or median, dose: 200.0 mg/kg/injection, schedule: Q01DX008 (sc), vehicle: saline): 10 of 10
